For at least one compound, name, drawing or mass did not settle the structure.
Tests used:
p70S6K = target: T1, p70S6K (Homo sapiens, UniProt P23443); assay: Western blot, p70S6K protein levels in drug-resistant NSCLC cells; assay type: cell-based; conditions: A549 and H1650 cells, 2 μM, 48 h
T1 construct: endogenous in cells; host or cells: A549, H358, H1975, H1650 for the Western blots
Experimental: Cells were washed once with PBS and frozen in RIPA lysis buffer containing protease and phosphatase inhibitors (Sigma-Aldrich) for 30 min. After sonication and centrifugation, the total protein concentration was determined by protein assay using Bio-Rad concentrated dye reagent (Bio-Rad). Equal amounts of protein ([…]) from each sample were separated by SDS-PAGE and electrotransferred to nitrocellulose membranes (GE Healthcare). Detection was performed on the membrane with a 1:1000 dilution of specific primary antibody followed by incubation with a 1:2000 dilution of the HRP conjugated secondary antibody. Finally, immunoreactivity is detected with a chemiluminescent substrate (Clarity Western ECL substrate; Bio-Rad). EGFR (#4267S), MET (#8198S), p-Akt (#9271L), akt (#9272S), p-mTOR (#5536S), mTOR (#2983S), p-p70S6K (#9234S), p70S6K (#2708S), p-S6RP (#4857S), S6RP (#2217S), p-4E-BP1 (#9455S) antibodies. 4E-BP1 (#9644S), p53 (#2527S), p21 waf1/Cip1 (#2947S), survivin (#2808S), cyclin B1 (#12231S), cyclin D3 (#2936S) and GAPDH (#2118S) were purchased from Cell Signaling Technology. Aurora A (#ab13824) and PLK1 (#ab189139) antibodies were from Abcam.

Chains of the proteins cited; added tags and fusions are not shown. Lines headed by an entry give the natural chain unless they say otherwise; changes in a name come on top.
UniProt P23443: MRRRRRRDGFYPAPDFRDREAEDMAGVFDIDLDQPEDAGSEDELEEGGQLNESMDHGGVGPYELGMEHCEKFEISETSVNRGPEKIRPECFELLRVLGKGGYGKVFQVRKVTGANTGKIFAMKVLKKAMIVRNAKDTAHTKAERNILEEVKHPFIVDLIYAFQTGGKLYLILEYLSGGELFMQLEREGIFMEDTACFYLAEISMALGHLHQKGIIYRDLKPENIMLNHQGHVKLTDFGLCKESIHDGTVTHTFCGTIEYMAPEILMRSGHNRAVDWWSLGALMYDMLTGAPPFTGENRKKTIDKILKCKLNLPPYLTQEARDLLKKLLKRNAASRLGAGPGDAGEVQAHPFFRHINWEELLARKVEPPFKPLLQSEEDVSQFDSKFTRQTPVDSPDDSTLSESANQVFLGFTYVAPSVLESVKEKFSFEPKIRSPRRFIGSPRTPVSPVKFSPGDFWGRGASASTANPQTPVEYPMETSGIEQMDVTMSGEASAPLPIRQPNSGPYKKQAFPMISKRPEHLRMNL

A549 and H1650 cells = assay: Protein synthesis rate (click-iT HPG Alexa Fluor 594 Protein Synthesis Assay Kit); assay type: cell-based; conditions: 2 μM, 48 h
Experimental: In FIG. 3 (A) is protein levels of p-Akt, Akt, p-mTOR, mTOR, p-p70S6K, p70S6K, p-S6RP, and S6RP determined by Western blot analysis for A549, H358, H1975, and H1650 cells treated with ATA (1 or 2 μM) for 48 h. (B) is A549 and H1650 cells treated with ATA (1 or 2 μM) or the protein synthesis inhibitor […] (CHX, 35 μM), respectively, for 48 h. The rate of protein synthesis was determined using the click-iT™ HPG Alexa Fluor™ 594 Protein Synthesis Assay Kit. The intensity of Texas Red fluorescence in the stained image represents the rate of protein synthesis. Quantification of the rate of protein synthesis is shown. ****P<0.0001 was based on a one-way analysis of variance followed by Tukey's multiple comparison test. Scale bar, 50 μm. […] Protein levels of p-p70S6K. p70S6K. p-S6RP, and S6RP were determined by Western blot analysis. […] The rate of protein synthesis was determined using the click-iT™ HPG Alexa Fluor™ 594 Protein Synthesis Assay Kit. The intensity of Texas Red fluorescence in the stained image represents the rate of protein synthesis. Quantification of the rate of protein synthesis is shown. *P<0.05 and **P<0.01 were based on a one-way analysis of variance followed by Tukey's multiple comparison test. […] Protein levels of p70S6K. p-p70S6K, S6RP, and p-S6RP were determined by Western blot analysis. […] Data are expressed as the mean±SD of three independent experiments.

With `CO[C@H]1C[C@@H]2CC[C@@H](C)[C@@](O)(O2)C(=O)C(=O)N2CCCC[C@H]2C(=O)O[C@H]([C@H](C)C[C@@H]2CC[C@@H](O)[C@H](OC)C2)CC(=O)[C@H](C)/C=C(\C)[C@@H](O)[C@@H](OC)C(=O)[C@H](C)C[C@H](C)/C=C/C=C/C=C/1C` [Rapamycin, rapamycin] the “levels of p70S6K” value (p70S6K) was “did not decrease”.

In the case of `O=c1cc(N2CCOCC2)oc2c(-c3ccccc3)cccc12` [LY294002], the “reduction (inhibition ratio) of protein synthesis” value (A549 and H1650 cells) is reported as “did not affect” and the “levels of p70S6K” value (p70S6K) is reported as “did not decrease”.
